Measurements reported in PubChem BioAssay AID652272 (Drosophila RNAi Screening Center, 2013)
The deposit covers about 21,000 reagents; shown is an unselected part of those with a known target gene and a result. Over the whole deposit, 503 (2.4%) were called active. 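Raw plate light values, not normalised; calls rest on replicate z-scores that were not deposited; hits include reporter decreases as well as increases.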 The numbers tell different reagents against one gene apart. The record does not give: the amount of reagent, the time to read-out.

Assay: 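Genome-wide knock-down search for components of Hedgehog signalling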 (primary screen)
Cells: Drosophila clone 8 (Cl8) cells
Knock-down reagent: long dsRNA against Drosophila genes
Detection: 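Plate reader light from a firefly reporter under a ptc promoter fragment that responds to Hedgehog, with Renilla light as transfection reference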
Reading the numbers: firefly Hh reporter signal: higher = more ptc reporter light; Renilla reference signal: higher = more Renilla control light
Call rule: 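Called a hit if the two-replicate mean z-score lies below -2 or above +3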
Calls: active = hit: reporter lowered or raised; inactive = not a hit

CG7766
- firefly Hh reporter signal, replicate 1: 70011
- firefly Hh reporter signal, replicate 2: 77715
- Renilla reference signal, replicate 1: 1863
- Renilla reference signal, replicate 2: 1572
- Outcome: inactive

Ect3
- firefly Hh reporter signal, replicate 1: 1.71e5
- firefly Hh reporter signal, replicate 2: 1.39e5
- Renilla reference signal, replicate 1: 6413
- Renilla reference signal, replicate 2: 3163
- Outcome: inactive

Pka-C3 #1
- firefly Hh reporter signal, replicate 1: 2.89e5
- Renilla reference signal, replicate 1: 7668
- Outcome: inactive

Pka-C3 #2
- firefly Hh reporter signal, replicate 1: 71377
- Renilla reference signal, replicate 1: 5572
- Renilla reference signal, replicate 2: 2822
- Outcome: inactive

CG3702
- firefly Hh reporter signal, replicate 1: 89853
- firefly Hh reporter signal, replicate 2: 83381
- Renilla reference signal, replicate 1: 3876
- Renilla reference signal, replicate 2: 3376
- Outcome: inactive

CG32564
- firefly Hh reporter signal, replicate 1: 78784
- firefly Hh reporter signal, replicate 2: 2.98e5
- Renilla reference signal, replicate 1: 1200
- Renilla reference signal, replicate 2: 11385
- Outcome: inactive

CG4069
- firefly Hh reporter signal, replicate 1: 1.15e5
- firefly Hh reporter signal, replicate 2: 69373
- Renilla reference signal, replicate 1: 4845
- Renilla reference signal, replicate 2: 3360
- Outcome: inactive

CG15096
- firefly Hh reporter signal, replicate 1: 1.51e5
- firefly Hh reporter signal, replicate 2: 1.15e5
- Renilla reference signal, replicate 1: 5748
- Renilla reference signal, replicate 2: 3882
- Outcome: inactive

Just “firefly Hh reporter signal, replicate 1”, for 2 of the entries above:
CG32564	78784
CG4069	1.15e5

Continued:
Cyp4e3
- firefly Hh reporter signal, replicate 1: 73706
- firefly Hh reporter signal, replicate 2: 50485
- Renilla reference signal, replicate 1: 1816
- Renilla reference signal, replicate 2: 4691
- Outcome: inactive

oaf
- firefly Hh reporter signal, replicate 1: 87954
- firefly Hh reporter signal, replicate 2: 80756
- Renilla reference signal, replicate 1: 1948
- Renilla reference signal, replicate 2: 1702
- Outcome: inactive

ND-ACP
- firefly Hh reporter signal, replicate 1: 76720
- firefly Hh reporter signal, replicate 2: 41184
- Renilla reference signal, replicate 1: 2848
- Renilla reference signal, replicate 2: 2929
- Outcome: inactive

CG15233
- firefly Hh reporter signal, replicate 1: 1.02e5
- firefly Hh reporter signal, replicate 2: 66101
- Renilla reference signal, replicate 1: 4083
- Renilla reference signal, replicate 2: 2661
- Outcome: inactive

nudE #1
- firefly Hh reporter signal, replicate 1: 1.64e5
- firefly Hh reporter signal, replicate 2: 3.09e5
- Renilla reference signal, replicate 1: 4901
- Renilla reference signal, replicate 2: 12659
- Outcome: inactive

nudE #2
- firefly Hh reporter signal, replicate 1: 30636
- firefly Hh reporter signal, replicate 2: 42573
- firefly Hh reporter signal, replicate 3: 52762
- Renilla reference signal, replicate 1: 3187
- Renilla reference signal, replicate 2: 3296
- Outcome: inactive

Jhbp13
- firefly Hh reporter signal, replicate 1: 1.71e5
- firefly Hh reporter signal, replicate 2: 59100
- Renilla reference signal, replicate 1: 4139
- Renilla reference signal, replicate 2: 4369
- Outcome: inactive

2mit #1
- firefly Hh reporter signal, replicate 1: 97816
- firefly Hh reporter signal, replicate 2: 79606
- Renilla reference signal, replicate 1: 3144
- Renilla reference signal, replicate 2: 1734
- Outcome: inactive

2mit #2
- firefly Hh reporter signal, replicate 1: 49111
- firefly Hh reporter signal, replicate 2: 77957
- Renilla reference signal, replicate 1: 1853
- Renilla reference signal, replicate 2: 2000
- Outcome: inactive

Psc
- firefly Hh reporter signal, replicate 1: 99316
- firefly Hh reporter signal, replicate 2: 55824
- Renilla reference signal, replicate 1: 2323
- Renilla reference signal, replicate 2: 4442
- Outcome: inactive

dmrt99B
- firefly Hh reporter signal, replicate 1: 48076
- firefly Hh reporter signal, replicate 2: 39892
- Renilla reference signal, replicate 1: 1956
- Renilla reference signal, replicate 2: 1491
- Outcome: inactive

l(2)efl
- firefly Hh reporter signal, replicate 1: 1.20e5
- firefly Hh reporter signal, replicate 2: 63109
- Renilla reference signal, replicate 1: 4672
- Renilla reference signal, replicate 2: 2550
- Outcome: inactive

vers
- firefly Hh reporter signal, replicate 1: 66514
- firefly Hh reporter signal, replicate 2: 44242
- Renilla reference signal, replicate 1: 3098
- Renilla reference signal, replicate 2: 2227
- Outcome: inactive
